Measured values as given in publication PMC5662751.

The chains behind the UniProt entries cited, without tags or fusion partners. Where a name states a change or a piece, a line headed by the entry shows the natural chain unless it says otherwise.
UniProt Q9UKV8, whole entry: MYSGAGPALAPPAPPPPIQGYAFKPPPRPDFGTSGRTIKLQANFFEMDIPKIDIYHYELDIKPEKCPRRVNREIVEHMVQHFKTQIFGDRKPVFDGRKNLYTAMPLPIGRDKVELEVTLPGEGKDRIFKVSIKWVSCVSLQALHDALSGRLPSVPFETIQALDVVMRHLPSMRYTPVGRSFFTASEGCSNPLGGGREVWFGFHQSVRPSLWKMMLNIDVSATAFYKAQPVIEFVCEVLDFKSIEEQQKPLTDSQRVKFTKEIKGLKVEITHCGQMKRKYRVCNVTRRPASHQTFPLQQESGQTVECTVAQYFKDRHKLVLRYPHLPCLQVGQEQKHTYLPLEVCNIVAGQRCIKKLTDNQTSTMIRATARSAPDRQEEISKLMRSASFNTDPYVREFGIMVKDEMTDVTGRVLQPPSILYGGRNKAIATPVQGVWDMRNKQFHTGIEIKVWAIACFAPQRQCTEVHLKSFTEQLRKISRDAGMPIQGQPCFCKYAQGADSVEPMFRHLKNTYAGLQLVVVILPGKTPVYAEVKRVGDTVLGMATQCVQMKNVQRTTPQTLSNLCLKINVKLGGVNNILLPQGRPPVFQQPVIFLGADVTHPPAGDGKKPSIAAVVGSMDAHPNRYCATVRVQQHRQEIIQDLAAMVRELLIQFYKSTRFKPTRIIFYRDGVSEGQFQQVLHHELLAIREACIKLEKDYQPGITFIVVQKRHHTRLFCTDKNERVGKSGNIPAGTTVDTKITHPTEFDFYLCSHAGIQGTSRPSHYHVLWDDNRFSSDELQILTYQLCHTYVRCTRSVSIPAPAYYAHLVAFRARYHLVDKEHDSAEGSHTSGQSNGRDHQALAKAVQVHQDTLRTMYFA
UniProt P23246: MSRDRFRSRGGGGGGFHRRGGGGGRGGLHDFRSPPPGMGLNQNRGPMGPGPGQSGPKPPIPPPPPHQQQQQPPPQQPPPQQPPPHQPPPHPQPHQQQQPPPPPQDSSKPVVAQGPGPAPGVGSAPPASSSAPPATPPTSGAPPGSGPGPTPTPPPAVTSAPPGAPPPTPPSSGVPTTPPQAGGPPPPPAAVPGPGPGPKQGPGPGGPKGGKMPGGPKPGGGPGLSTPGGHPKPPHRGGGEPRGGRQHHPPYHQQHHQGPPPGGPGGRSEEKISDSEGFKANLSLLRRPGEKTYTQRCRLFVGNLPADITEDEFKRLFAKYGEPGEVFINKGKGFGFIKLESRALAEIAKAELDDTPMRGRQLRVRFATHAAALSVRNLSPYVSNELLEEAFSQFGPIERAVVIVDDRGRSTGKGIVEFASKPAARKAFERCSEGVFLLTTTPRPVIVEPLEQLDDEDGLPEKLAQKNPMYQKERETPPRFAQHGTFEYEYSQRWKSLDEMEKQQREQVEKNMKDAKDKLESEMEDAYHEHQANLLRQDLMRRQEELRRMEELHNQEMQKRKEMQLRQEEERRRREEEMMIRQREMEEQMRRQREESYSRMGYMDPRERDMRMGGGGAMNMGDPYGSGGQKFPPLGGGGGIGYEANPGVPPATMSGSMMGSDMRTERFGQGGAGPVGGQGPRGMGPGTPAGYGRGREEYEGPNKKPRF

Experiments:
Ago2 = Ago2 (UniProt Q9UKV8); assay: EMSA; conditions: EMSA: 75 mM Hepes pH 7.9, 150 mM NaCl, 75 mM KCl, 0.1 mM EDTA, 5 mM DTT, 5 mM PMSF, 15% glycerol, 15 min, room temperature; commercial protein; label: 32P
Sfpq wild-type (human) = Sfpq wild-type (human) (UniProt P23246); assay: EMSA; conditions: EMSA: 75 mM Hepes pH 7.9, 150 mM NaCl, 75 mM KCl, 0.1 mM EDTA, 5 mM DTT, 5 mM PMSF, 15% glycerol, 15 min, room temperature; recombinant protein; residues 1-707; protein details: 6xHis (pET15b); label: 32P

Row | Sequence | binding result (Ago2) | binding result (Sfpq wild-type (human))
1 | UUGUAUUGUA [Motif#2 n1 (UUGUA x2)] | no binding | binds
2 | CCCCGCCCCG [Sfpq negative RNA oligo (CCCCG x2)] |  | no binding
3 | CUGACUGA [Motif#1 n2 (CUGA x2)] | no binding | binds
4 | CUGUACUGUA [CUGU/CUGUA x2 oligo] | no binding | binds
5 | AUGUAAUGUA [Motif#2 n2 (AUGUA x2)] | no binding | binds
6 | GUGUAGUGUA [Motif#2 n3 (GUGUA x2)] | no binding | binds

Negatives hold for the conditions tested. At least one verdict rests on a figure or table, not on a statement of the authors. Construct, isoform or probe ends are uncertain for at least one entry.
